Laboratory results from PubChem BioAssay (EPA / NIEHS).
The inconclusive results got no clear call from the source; some entries with a clear call stand among them for comparison. For some of these results: A potency beside an inconclusive call is a rough fit, not a confirmed value. Calls of active or inactive are those of the source. How the source made its calls: active means hit-call score of the fitted dose curve at least 0.9, where 1 is the maximum; inconclusive means response in the unintended direction; inactive means score below 0.9.

The chains behind the UniProt entries cited, without tags or fusion partners. Where a name states a change or a piece, a line headed by the entry shows the natural chain unless it says otherwise.
UniProt P57717: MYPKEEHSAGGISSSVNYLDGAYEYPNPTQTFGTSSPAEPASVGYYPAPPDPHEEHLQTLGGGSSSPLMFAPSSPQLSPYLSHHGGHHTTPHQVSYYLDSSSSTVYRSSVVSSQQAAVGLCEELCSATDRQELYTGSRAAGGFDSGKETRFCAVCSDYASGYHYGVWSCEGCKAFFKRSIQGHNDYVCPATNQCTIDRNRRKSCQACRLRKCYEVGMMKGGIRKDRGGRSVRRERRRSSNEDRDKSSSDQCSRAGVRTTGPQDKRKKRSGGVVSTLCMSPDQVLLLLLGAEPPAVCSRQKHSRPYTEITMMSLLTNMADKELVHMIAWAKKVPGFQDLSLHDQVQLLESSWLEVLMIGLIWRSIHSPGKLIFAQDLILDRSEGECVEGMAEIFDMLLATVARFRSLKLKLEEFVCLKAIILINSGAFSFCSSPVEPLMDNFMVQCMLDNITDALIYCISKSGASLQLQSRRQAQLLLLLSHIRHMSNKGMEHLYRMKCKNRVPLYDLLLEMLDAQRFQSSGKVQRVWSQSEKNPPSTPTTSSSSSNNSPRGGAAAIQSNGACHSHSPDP
UniProt P06212, whole entry, looked up: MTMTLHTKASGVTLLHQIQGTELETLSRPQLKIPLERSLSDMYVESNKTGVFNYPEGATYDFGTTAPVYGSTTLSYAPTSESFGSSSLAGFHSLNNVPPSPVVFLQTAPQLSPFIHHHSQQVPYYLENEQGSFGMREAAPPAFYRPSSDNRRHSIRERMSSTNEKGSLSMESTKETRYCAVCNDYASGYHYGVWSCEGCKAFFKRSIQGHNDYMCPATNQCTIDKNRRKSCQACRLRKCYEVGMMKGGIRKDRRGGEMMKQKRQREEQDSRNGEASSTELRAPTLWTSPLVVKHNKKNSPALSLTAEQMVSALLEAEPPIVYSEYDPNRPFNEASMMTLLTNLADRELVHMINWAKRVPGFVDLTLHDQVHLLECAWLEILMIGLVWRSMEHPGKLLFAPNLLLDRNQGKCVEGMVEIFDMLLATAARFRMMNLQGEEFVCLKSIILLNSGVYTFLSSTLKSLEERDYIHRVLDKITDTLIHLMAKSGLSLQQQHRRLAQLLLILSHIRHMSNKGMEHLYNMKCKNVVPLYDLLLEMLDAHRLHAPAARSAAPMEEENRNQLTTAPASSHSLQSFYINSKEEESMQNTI
UniProt P03372, whole entry, looked up: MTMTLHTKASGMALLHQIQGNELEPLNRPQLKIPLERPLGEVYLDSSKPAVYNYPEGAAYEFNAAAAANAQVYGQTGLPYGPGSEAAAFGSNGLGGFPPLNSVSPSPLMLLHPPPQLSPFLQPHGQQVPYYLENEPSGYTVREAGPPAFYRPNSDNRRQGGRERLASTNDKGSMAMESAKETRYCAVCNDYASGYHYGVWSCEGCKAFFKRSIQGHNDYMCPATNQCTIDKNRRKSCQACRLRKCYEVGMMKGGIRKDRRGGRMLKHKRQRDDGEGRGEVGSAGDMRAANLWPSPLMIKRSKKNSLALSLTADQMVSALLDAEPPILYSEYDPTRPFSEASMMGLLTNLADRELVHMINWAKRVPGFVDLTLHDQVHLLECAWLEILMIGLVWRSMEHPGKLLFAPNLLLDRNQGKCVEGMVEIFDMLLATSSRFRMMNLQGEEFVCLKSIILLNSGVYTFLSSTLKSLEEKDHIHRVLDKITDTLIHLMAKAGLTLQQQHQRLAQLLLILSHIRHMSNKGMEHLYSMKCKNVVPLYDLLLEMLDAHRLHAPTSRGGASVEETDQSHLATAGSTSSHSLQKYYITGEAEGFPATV
UniProt P10275: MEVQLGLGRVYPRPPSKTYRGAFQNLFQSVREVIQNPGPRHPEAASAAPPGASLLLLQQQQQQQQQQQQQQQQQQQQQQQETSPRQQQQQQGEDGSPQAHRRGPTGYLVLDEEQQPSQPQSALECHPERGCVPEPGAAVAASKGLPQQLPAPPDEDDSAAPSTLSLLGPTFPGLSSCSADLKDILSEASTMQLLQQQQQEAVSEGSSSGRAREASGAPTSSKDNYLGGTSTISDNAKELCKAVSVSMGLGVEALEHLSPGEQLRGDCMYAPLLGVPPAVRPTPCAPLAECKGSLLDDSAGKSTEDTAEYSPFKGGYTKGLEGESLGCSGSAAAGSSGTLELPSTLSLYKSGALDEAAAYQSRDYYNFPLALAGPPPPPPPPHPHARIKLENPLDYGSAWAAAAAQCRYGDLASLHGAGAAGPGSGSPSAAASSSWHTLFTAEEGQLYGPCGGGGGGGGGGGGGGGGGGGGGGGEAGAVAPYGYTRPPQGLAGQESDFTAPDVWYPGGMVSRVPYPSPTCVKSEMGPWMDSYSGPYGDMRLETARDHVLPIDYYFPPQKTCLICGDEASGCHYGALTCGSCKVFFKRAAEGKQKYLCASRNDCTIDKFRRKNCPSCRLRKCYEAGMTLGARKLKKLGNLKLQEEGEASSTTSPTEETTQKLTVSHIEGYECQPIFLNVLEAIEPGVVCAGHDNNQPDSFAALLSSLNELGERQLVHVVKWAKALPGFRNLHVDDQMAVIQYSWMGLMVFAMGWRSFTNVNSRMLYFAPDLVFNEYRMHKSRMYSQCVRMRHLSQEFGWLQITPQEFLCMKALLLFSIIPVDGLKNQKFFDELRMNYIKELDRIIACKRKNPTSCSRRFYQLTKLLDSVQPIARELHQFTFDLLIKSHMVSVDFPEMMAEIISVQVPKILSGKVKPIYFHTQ
UniProt P08659, whole entry, looked up: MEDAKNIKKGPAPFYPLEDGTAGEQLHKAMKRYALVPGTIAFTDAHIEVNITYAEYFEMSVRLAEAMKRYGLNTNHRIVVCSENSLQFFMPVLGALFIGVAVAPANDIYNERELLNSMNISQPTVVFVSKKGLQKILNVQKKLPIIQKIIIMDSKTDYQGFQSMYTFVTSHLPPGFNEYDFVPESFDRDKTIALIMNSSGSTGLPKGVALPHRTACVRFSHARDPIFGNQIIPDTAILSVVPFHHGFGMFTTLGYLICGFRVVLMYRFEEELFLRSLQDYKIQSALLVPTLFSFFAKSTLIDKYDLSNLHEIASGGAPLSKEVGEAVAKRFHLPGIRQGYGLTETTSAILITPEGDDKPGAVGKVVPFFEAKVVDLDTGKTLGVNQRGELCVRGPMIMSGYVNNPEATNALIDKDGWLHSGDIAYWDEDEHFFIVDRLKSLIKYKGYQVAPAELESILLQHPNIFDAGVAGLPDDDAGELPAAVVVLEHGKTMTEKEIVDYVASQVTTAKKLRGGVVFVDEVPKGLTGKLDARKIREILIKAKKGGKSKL

Experiments:
[1] = test system: chicken Androgen Receptor (AR), gene 422165; assay: ATG_chAR_XSP1: Attagene TRANS-FACTORIAL Multi-Species (XSP1) HepG2 Assay for chicken Androgen Receptor (AR) (AID 2283768)
Outline: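 Reporter mRNA read by RT-PCR with fluorescent labelling and capillary electrophoresis 24 h after chemical dosing of transiently transfected HepG2 cells. Chicken AR-Gal4 chimera, partially stimulated with 3 nM 6-alpha-fluorotestosterone; activity fitted upward relative to DMSO.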

[2] = test system: frog Androgen Receptor (AR), gene 399456; assay: ATG_frAR_XSP1: Attagene TRANS-FACTORIAL Multi-Species (XSP1) HepG2 Assay for frog Androgen Receptor (AR) (AID 2283770)
Protocol: ATG_XSP1_multi-species_TRANS is a cell-based, multiplexed assay created by modifying the existing Attagene TRANS-FACTORIAL system to include a panel of nuclear receptors from some or all the following species: human (Homo sapiens), mouse (Mus musculus), frog (Xenopus laevis), zebrafish (Danio rerio), chicken (Gallus gallus), and turtle (Chrysemys picta). The ECOTOX-FACTORIAL format uses HepG2, a human liver cell line, with measurements taken at 24 hours after chemical dosing in a 24-well plate. Xsp1 included 3 nM 6-alpha-fluorotestosterone to partially stimulate the androgen receptor.ATG_frAR_XSP1 is one of 29 assay components measured or calculated from the ATG_XSP1_multi-species_TRANS assay. It is designed to make measurements of mRNA induction, a form of inducible reporter, as detected with fluorescence intensity signals by Reverse transcription polymerase chain reaction (RT-PCR) and Capillary electrophoresis technology.The assay endpoint ATG_frAR_XSP1 was analyzed in the positive analysis fitting direction relative to DMSO as the negative control and baseline of activity. Using a type of inducible reporter, measures of mRNA for gain-of-signal activity can be used to understand the reporter gene at the transcription factor-level as they relate to the gene AR. Furthermore, this assay endpoint can be referred to as a primary readout, because this assay has produced multiple assay endpoints where this one serves a reporter gene function. To generalize the intended target to other relatable targets, this assay endpoint is annotated to the nuclear receptor intended target family, where the subfamily is steroidal.
Human liver HepG2 cells are transiently transfected with multiple reporter transcription units (MRTUs) in 6-well plates using FuGene 6 reagent (Roche; 3 ml FuGene/1 mg DNA). The MRTU constructs are regulated by a cis-regulating element (promoter). […] A major difference between the CIS and TRANS system is that in CIS activities of endogenous TFs are measured, whereas the TRANS assay evaluates changes in activities of exogenous, chimeric NR-Gal4 proteins. […] At the end of 24 hour incubation, total RNA was isolated using TriZol reagent (Invitrogen). The isolated RNA is then reverse-transcribed using oligo(dT) primer and Mo-MLV reverse transcriptase (Invitrogen) with DNAse I (Ambion) treatment for 30 min. The one-tenth of the produced cDNA was amplified by PCR using Taq DNA polymerase (Invitrogen) and two reporter sequence-specific primers. The PCR products were fluorescently labeled by primer extension with 6-arboxyfluorescein (6-FAM) 5'-labeled reporter sequence-specific primer (2 min at 95 C, 20 s at 68 C and 10 min at 72 C) and these products were digested with 5U of HpaI (New England Biolabs) for 2h at 37 C. The fragments were purified using Qiaquick PCR columns (Qiagen), analyzed on an ABI 3130xL genetic analyzer (Applied Biosystems) with peak positions identified by using a set of X-rhodamine (ROX)-labeled MapMarker1000 molecular weight standards (BioVentures). The raw capillary electrophoresis data was processed using Attagraph software (Attagene).

[3] = test system: zebrafish Androgen Receptor (AR), gene 100005148; assay: ATG_zfAR_XSP1: Attagene TRANS-FACTORIAL Multi-Species (XSP1) HepG2 Assay for zebrafish Androgen Receptor (AR) (AID 2283771)
Outline: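 Gain-of-signal versus DMSO was measured as reporter transcripts quantified by RT-PCR, fluorescent labelling and capillary electrophoresis after 24 h chemical exposure. The cells were HepG2 expressing a chimeric zebrafish AR-GAL4, co-stimulated with 3 nM 6-alpha-fluorotestosterone.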

[4] = target: zebrafish Estrogen Receptor (ESR1), esr1 (gene 259252) (UniProt P57717); assay: ATG_zfER1_XSP1: Attagene TRANS-FACTORIAL Multi-Species (XSP1) HepG2 Assay for zebrafish Estrogen Receptor (ESR1) (AID 2283772)
Outline: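 HepG2 cells transiently transfected with a GAL4-UAS reporter and chimeric zebrafish ER-Gal4, dosed 24 h with 3 nM 6-alpha-fluorotestosterone present. Reporter mRNA measured by RT-PCR and capillary electrophoresis; gain of signal versus DMSO.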

[5] = test system: frog Estrogen Receptor (ESR1), gene 398734; assay: ATG_frER1_XSP1: Attagene TRANS-FACTORIAL Multi-Species (XSP1) HepG2 Assay for frog Estrogen Receptor (ESR1) (AID 2283777)
Outline: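 HepG2 cells transiently transfected with GAL4-UAS reporter units and frog ER–Gal4 chimera were dosed for 24 h with 3 nM 6-alpha-fluorotestosterone present. Reporter mRNA was measured by RT-PCR and capillary electrophoresis; gain of signal fitted versus DMSO.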

[6] = test system: zebrafish Estrogen Receptor (ESR2A), gene 317734; assay: ATG_zfER2a_XSP1: Attagene TRANS-FACTORIAL Multi-Species (XSP1) HepG2 Assay for zebrafish Estrogen Receptor (ESR2A) (AID 2283778)
Outline: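 Reporter transcripts were quantified by RT-PCR, 6-FAM labelling, HpaI digestion and capillary electrophoresis after 24 h dosing. The cells were HepG2 transiently carrying a zebrafish ER2a–Gal4 construct plus multiplexed UAS reporters; medium contained 3 nM 6-alpha-fluorotestosterone.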

[7] = target: chicken Estrogen Receptor (ESR1), ESR1 (gene 396099) (UniProt P06212); assay: ATG_chERa_XSP1: Attagene TRANS-FACTORIAL Multi-Species (XSP1) HepG2 Assay for chicken Estrogen Receptor (ESR1) (AID 2283779)
Outline: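 Trans-activation of an exogenous chicken ERα–Gal4 chimera read as reporter transcript (RT-PCR, fluorescent labeling, capillary electrophoresis) after 24 h compound exposure of transfected HepG2; medium held 3 nM 6-alpha-fluorotestosterone. Positive-direction fit against DMSO.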

[8] = target: Estrogen receptor (Homo sapiens) (UniProt P03372); assay: ATG_hERa_XSP1: Attagene TRANS-FACTORIAL Multi-Species (XSP1) HepG2 Assay for human Estrogen Receptor (ESR1) (AID 2283780)
Outline: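 Reporter transcripts from multiplexed GAL4-UAS units driven by NR-Gal4 chimeras in transiently transfected HepG2 were measured by RT-PCR with capillary electrophoresis 24 h post-dose, with 3 nM 6-alpha-fluorotestosterone present; gain-of-signal relative to DMSO.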

[9] = test system: turtle Estrogen Receptor (ESR1), gene 101933533; assay: ATG_trERa_XSP1: Attagene TRANS-FACTORIAL Multi-Species (XSP1) HepG2 Assay for turtle Estrogen Receptor (ESR1) (AID 2283781)
Outline: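 Transactivation measured 24 h post-dose as reporter mRNA (RT-PCR, fluorescent capillary electrophoresis) from an NR-Gal4 turtle ER construct in HepG2. Medium included 3 nM 6-alpha-fluorotestosterone; increase over DMSO fitted.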

[10] = ACEA_ER_AUC_viability: ACEA Biosciences xCELLigence Real-Time Cell Analysis on Estrogen Receptor Agonism for Viability (AID 2283782);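 further: hit means loss of impedance signal meaning reduced cell growth or viability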
Outline: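 Viability endpoint: reduced impedance area under the curve relative to DMSO, recorded by real-time electrode sensing over ~80 h of continuous exposure. Duplicate plates of T47D in hormone-depleted medium; eight concentrations, 1:4 dilutions, 100 uM maximum.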

AR (gene 367) = AR (gene 367) (UniProt P10275); assay: ACEA_AR_agonist_80hr: ACEA Biosciences xCELLigence Real-Time Cell Analysis on Androgen Receptor Agonism for Proliferation (AID 2283783);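 further: hits increase impedance growth signal above DMSO baseline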
Outline: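 Eight concentrations, 1:4 serial dilution from a 100 uM final top, in biological duplicate. Impedance-based real-time growth of 22Rv1 cells after overnight baseline, recorded hourly and read at 80 hours. Controls: testosterone, MG132, assay media.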

[11] = target: human Androgen Receptor (AR), AR (gene 367) (UniProt P10275); assay: ATG_hAR_XSP1: Attagene TRANS-FACTORIAL Multi-Species (XSP1) HepG2 Assay for human Androgen Receptor (AR) (AID 2283785)
[12] = test system: turtle Androgen Receptor (AR), gene 101947425; assay: ATG_trAR_XSP1: Attagene TRANS-FACTORIAL Multi-Species (XSP1) HepG2 Assay for turtle Androgen Receptor (AR) (AID 2283786)
Outline: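 Partial androgen stimulation is provided by 3 nM 6-alpha-fluorotestosterone in a multi-species trans-factorial panel expressing a turtle AR–GAL4 fusion in HepG2. After 24 h, reporter mRNA is measured by RT-PCR and capillary electrophoresis and fitted upward against DMSO.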

[13] = ArunA_NOG_BranchPointsPerNeurite: ArunA Biomedical's Neurite Outgrowth (NOG) Assay for Branch Points Per Neurite (AID 2283759)
Outline: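 Automated image analysis traced neurites (processes >10 um) from valid cell bodies after Hoechst and βIII-tubulin staining. hNN cells from H9 embryonic stem cells, 48 h exposure. Fitted bidirectionally against DMSO.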

[14] = ACEA_AR_antagonist_AUC_viability: ACEA Biosciences xCELLigence Real-Time Cell Analysis on Androgen Receptor Antagonism for Viability (AID 2283776);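 further: 22Rv1 human prostate cancer cells growing on impedance electrode plates; area under impedance growth curve at 80 h after dosing as viability; hits lower the growth signal relative to DMSO meaning cytotoxicity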
Outline: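 Impedance read-out (RT-CES): area under growth curve at 80 h post-dose, loss of signal scored vs DMSO baseline. 22Rv1 cells; 8-pt 1:4 series, top 100 uM final, ≤0.5% DMSO; biological duplicate.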

[15] = STM_H9_NormalizedViability: Cytotoxicity Assessment at 120 hours in the Stemina devTOX quickPredict H9 human embryonic stem cell (hESC)-based Assay (AID 2283784)
Outline: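 Here, H9 cells received test compound with daily medium renewal. Each plate included methotrexate references (1uM, 5 nM), 0.1% DMSO and media blanks; CellTiter-Fluor RFU was normalized to DMSO.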

[16] = ACEA_AR_agonist_AUC_viability: ACEA Biosciences xCELLigence Real-Time Cell Analysis on Androgen Receptor Agonism for Viability (AID 2283775);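 on AC50: viability read 80 hours after compound addition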
Outline: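 Viability endpoint from xCELLigence impedance in 22Rv1 prostate cells at 80 h. Eight-point series, 100 uM maximum final.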

[17] = target: Luciferin 4-monooxygenase (Photinus pyralis) (UniProt P08659); assay: CCTE_Simmons_QuantiLum_inhib_2: CCTE's Firefly Luciferase Inhibition Assay, Simmons Lab (AID 2283767);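 on AC50: potency for inhibitors that lower luciferase luminescence relative to DMSO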
Outline: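 Eight-point titrations of each chemical, 5 nM–87.5 uM final in 0.5% DMSO, were run in three biological replicates against recombinant luciferase for 30 min at 37C. Bioluminescence signal loss, read on reagent injection, gave the inhibition endpoint.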

CC(C)(C)c1cc(O)c(C(C)(C)C)cc1O
AC50 [1]: inconclusive: 184 µM
AC50 [2]: inconclusive: 138 µM
outcome [3]: inactive
outcome [4]: inactive
AC50 [5]: inconclusive: 164 µM
AC50 [6]: inconclusive: 177 µM
AC50 [7]: inconclusive: 0.00914 µM
AC50 [8]: inconclusive: 100 µM
AC50 [9]: inconclusive: 0.00914 µM
AC50 [10]: inconclusive: 9.92 µM
AC50 (AR (gene 367)): inconclusive: 0.042 µM
AC50 [11]: inconclusive: 145 µM
AC50 [12]: inconclusive: 171 µM

O=C1OC(c2ccc(O)cc2)(c2ccc(O)cc2)c2ccccc21
AC50 [13]: inconclusive: 50 µM
AC50 [14]: active: 19.8 µM
outcome (AR (gene 367)): inactive

O=C(c1ccc(O)cc1)c1ccc(O)cc1O
AC50 [1]: active: 1.56 µM
AC50 [2]: active: 2.78 µM
AC50 [3]: inconclusive: 2.53 µM
AC50 [15]: inconclusive: 10 µM
AC50 [12]: active: 2.69 µM

CC(C)(C)NC(=O)[C@H]1CC[C@H]2[C@@H]3CC[C@H]4NC(=O)C=C[C@]4(C)[C@H]3CC[C@]12C
AC50 [1]: inconclusive: 40 µM
AC50 [2]: inconclusive: 34.6 µM
AC50 [3]: inconclusive: 100 µM
outcome [5]: inactive
outcome [9]: inactive
AC50 [10]: inconclusive: 0.0368 µM
AC50 [12]: inconclusive: 18.6 µM

Cc1[nH]cnc1C[C@H]1CCc2c(C)c3ccccc3n2C1=O
AC50 [16]: active: 44.5 µM

O=C(O)C(=O)O
AC50 [16]: inconclusive: 0.158 µM

Cn1cc[nH]c1=S
AC50 [13]: active: 7.98 µM
AC50 [16]: inconclusive: 50 µM

OC[C@H]1O[C@@H]2O[C@H]3[C@H](O)[C@@H](O)[C@@H](O[C@H]4[C@H](O)[C@@H](O)[C@@H](O[C@H]5[C@H](O)[C@@H](O)[C@@H](O[C@H]6[C@H](O)[C@@H](O)[C@@H](O[C@H]7[C@H](O)[C@@H](O)[C@@H](O[C@H]1[C@H](O)[C@H]2O)O[C@@H]7CO)O[C@@H]6CO)O[C@@H]5CO)O[C@@H]4CO)O[C@@H]3CO
outcome [16]: inactive

CCCc1ccc(N)cc1
outcome [16]: inactive

CCc1cc(C(C)(C)C)c(O)c(C(C)(C)C)c1
outcome [17]: inactive
outcome [16]: inactive
AC50 [10]: active: 81.8 µM

CCCCC(CC)COP(=O)(OCC(CC)CCCC)OCC(CC)CCCC (stereo not drawn)
outcome [13]: inactive
AC50 [10]: inconclusive: 76.7 µM
AC50 [15]: inconclusive: 0.0992 µM

O=C(OC[C@H]1O[C@@H](OC(=O)c2cc(O)c(O)c(OC(=O)c3cc(O)c(O)c(O)c3)c2)[C@H](OC(=O)c2cc(O)c(O)c(OC(=O)c3cc(O)c(O)c(O)c3)c2)[C@@H](OC(=O)c2cc(O)c(O)c(OC(=O)c3cc(O)c(O)c(O)c3)c2)[C@@H]1OC(=O)c1cc(O)c(O)c(OC(=O)c2cc(O)c(O)c(O)c2)c1)c1cc(O)c(O)c(OC(=O)c2cc(O)c(O)c(O)c2)c1
AC50 [17]: active: 21.6 µM
AC50 [14]: inconclusive: 3.08 µM
outcome [10]: inactive
